# No constants are given. Whether binding was seen depends on the method and setting. In cells and extracts the contact can be indirect. Here binding means that the protein was enriched with, or labelled near, the bait; the list need not be complete. Sequences can lack the tags named with a protein.
# Protein sequences, listed by entry. Tags and fused reporters are not part of them.
# UniProt Q80X90: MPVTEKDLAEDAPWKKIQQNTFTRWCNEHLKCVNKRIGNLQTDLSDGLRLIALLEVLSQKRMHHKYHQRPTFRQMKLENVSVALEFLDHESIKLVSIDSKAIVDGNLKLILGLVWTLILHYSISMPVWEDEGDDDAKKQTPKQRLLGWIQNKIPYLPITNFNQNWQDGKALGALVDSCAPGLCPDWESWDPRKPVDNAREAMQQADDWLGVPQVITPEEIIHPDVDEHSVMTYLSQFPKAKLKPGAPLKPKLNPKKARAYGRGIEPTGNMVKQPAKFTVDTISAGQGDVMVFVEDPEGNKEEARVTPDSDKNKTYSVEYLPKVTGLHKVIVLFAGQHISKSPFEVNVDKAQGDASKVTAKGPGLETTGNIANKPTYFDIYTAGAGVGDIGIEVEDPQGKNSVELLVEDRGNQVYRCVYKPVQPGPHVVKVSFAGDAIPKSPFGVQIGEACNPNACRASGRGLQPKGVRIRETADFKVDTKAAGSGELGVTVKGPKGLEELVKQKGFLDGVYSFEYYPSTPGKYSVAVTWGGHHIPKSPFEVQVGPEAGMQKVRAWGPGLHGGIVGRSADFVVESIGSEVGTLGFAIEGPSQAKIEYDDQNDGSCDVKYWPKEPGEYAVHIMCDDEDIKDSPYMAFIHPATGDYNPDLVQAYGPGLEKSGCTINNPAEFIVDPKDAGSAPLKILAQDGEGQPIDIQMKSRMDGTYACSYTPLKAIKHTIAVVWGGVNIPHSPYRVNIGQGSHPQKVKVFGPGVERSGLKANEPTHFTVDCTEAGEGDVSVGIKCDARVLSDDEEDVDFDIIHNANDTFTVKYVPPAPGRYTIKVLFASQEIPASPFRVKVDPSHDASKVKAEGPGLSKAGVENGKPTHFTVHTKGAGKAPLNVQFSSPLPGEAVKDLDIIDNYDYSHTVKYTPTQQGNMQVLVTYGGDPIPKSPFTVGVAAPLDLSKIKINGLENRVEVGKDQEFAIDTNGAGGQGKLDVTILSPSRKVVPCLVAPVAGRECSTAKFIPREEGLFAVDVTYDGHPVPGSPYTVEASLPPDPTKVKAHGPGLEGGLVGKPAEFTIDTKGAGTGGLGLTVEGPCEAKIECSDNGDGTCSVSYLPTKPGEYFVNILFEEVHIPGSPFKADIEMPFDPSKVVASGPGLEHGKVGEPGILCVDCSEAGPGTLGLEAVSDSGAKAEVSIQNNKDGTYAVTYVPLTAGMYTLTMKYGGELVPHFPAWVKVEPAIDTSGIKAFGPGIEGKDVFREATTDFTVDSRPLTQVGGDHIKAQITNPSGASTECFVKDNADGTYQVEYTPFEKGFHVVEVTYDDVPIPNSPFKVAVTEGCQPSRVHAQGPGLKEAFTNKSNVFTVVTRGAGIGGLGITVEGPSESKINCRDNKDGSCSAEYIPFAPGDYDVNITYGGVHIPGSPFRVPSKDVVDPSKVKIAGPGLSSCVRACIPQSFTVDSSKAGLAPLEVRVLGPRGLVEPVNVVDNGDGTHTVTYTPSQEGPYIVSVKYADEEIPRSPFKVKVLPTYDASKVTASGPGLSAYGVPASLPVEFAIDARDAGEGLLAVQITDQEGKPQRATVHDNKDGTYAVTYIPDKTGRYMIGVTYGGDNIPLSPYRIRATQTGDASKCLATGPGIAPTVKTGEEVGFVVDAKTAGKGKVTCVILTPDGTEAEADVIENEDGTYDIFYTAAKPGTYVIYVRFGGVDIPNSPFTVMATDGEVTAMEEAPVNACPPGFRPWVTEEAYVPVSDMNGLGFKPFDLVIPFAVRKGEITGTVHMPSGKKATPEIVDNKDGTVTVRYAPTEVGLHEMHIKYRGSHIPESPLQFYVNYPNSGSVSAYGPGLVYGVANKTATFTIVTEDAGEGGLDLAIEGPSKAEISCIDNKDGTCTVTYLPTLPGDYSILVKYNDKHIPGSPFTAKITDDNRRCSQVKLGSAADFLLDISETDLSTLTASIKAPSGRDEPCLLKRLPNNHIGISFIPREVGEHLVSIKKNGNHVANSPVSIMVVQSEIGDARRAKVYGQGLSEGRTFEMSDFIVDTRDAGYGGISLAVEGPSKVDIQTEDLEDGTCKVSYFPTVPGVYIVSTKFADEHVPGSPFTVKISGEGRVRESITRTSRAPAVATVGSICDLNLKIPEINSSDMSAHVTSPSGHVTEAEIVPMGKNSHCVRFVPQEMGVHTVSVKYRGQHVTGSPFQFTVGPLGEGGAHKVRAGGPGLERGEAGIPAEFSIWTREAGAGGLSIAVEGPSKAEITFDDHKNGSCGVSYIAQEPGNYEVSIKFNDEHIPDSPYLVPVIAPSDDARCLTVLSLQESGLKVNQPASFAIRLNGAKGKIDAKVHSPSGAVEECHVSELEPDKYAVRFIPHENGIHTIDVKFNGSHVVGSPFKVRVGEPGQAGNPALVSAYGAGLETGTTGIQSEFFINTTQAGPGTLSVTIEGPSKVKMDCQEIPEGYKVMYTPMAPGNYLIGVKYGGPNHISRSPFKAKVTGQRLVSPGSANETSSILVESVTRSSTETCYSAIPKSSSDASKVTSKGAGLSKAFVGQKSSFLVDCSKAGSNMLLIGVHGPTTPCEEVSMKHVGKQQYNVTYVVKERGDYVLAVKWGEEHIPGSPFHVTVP
# UniProt Q6P5H2: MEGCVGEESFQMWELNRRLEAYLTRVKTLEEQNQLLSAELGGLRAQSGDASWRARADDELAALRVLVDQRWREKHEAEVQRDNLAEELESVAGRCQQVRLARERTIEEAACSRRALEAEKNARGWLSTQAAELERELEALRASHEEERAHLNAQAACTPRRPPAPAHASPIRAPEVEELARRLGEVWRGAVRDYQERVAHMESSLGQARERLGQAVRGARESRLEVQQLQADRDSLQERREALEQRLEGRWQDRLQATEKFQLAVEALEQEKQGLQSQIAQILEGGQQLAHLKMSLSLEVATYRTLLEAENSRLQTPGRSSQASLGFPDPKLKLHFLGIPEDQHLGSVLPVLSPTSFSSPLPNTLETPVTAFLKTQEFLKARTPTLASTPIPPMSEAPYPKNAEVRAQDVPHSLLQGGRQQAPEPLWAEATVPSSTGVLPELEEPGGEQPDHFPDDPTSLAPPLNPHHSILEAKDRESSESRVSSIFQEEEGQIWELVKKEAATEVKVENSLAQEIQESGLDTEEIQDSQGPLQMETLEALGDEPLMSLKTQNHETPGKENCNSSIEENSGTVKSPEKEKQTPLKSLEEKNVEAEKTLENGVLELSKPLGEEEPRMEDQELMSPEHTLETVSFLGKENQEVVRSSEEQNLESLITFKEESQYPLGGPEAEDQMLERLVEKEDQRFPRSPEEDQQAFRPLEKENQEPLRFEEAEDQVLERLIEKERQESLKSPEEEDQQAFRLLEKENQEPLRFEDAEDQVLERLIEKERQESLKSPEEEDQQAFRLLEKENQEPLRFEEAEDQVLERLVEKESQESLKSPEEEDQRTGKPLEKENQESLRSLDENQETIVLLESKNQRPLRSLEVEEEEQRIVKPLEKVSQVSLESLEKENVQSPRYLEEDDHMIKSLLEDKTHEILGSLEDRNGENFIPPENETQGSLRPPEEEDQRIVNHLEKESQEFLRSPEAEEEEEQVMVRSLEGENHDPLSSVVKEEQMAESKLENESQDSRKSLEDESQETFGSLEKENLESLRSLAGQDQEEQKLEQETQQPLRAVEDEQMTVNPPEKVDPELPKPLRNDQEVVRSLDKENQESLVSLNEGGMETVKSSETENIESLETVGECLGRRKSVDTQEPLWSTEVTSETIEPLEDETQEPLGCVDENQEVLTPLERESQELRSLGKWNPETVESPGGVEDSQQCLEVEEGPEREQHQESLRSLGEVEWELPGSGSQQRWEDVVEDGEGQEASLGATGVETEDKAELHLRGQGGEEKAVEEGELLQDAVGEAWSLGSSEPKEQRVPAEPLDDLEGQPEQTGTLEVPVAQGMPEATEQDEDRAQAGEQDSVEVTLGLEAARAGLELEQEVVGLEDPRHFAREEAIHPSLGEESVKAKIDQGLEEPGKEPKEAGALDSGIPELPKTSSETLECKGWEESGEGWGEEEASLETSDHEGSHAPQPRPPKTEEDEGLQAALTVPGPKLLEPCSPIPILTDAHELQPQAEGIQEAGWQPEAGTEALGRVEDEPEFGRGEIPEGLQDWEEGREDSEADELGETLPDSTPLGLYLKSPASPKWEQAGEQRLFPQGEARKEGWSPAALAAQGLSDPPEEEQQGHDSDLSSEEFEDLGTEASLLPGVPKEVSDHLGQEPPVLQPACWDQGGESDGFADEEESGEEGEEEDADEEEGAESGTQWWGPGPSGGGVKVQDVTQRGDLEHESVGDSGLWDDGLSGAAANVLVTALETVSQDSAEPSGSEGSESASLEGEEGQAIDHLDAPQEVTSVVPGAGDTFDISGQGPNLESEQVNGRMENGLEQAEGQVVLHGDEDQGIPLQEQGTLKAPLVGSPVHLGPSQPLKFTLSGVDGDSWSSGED
# UniProt Q61879: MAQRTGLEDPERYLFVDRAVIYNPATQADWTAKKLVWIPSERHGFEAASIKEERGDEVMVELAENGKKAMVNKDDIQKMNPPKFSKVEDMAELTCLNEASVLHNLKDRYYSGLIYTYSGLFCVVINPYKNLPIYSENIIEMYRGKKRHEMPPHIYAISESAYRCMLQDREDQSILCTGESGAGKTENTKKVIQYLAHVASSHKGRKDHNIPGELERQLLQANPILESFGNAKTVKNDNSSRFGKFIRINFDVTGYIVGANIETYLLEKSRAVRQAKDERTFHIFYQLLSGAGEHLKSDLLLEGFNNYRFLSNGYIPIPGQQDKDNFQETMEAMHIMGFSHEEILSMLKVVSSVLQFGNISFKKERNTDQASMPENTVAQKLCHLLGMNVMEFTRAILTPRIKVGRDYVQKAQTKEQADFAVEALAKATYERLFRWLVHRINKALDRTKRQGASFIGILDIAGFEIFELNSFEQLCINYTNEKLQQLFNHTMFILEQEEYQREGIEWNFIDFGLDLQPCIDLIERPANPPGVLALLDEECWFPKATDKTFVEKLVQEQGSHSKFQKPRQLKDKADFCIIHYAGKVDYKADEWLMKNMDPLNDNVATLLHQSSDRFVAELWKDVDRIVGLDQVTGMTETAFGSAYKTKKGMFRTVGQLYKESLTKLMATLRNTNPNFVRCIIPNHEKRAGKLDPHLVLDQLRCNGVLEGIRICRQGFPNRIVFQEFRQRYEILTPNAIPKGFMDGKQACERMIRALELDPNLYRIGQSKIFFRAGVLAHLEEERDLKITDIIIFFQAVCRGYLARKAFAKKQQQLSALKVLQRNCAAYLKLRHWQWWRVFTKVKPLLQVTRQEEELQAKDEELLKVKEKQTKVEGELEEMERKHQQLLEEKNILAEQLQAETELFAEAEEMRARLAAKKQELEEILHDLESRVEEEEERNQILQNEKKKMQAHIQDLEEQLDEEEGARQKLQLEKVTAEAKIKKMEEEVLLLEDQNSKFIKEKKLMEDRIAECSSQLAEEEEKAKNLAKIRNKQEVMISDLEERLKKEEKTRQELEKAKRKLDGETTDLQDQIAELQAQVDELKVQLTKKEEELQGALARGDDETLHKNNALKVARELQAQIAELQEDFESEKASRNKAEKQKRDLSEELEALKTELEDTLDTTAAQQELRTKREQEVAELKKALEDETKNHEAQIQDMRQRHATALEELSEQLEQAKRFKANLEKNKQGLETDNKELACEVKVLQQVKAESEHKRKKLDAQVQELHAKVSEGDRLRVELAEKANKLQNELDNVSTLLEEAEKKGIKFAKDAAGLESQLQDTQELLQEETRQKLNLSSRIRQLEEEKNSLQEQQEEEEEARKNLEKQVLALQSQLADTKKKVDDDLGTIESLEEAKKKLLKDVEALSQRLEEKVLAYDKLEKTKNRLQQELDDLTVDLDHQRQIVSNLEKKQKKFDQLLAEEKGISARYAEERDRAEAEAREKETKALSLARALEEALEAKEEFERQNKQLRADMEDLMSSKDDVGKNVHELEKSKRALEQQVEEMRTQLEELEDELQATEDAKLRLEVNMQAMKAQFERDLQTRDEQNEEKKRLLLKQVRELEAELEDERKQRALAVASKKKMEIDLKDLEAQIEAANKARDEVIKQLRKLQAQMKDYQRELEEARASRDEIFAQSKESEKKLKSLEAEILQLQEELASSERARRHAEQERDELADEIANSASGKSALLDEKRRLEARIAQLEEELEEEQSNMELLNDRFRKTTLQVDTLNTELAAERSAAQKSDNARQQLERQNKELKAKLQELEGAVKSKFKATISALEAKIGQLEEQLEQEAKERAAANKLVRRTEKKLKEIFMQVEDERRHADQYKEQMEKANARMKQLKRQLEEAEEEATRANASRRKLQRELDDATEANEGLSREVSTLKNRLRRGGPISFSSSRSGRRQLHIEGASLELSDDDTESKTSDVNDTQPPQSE
# Biological target: T1, full-length hAPE2 bearing 3 FLAG tags (human) (UniProt Q9UBZ4)
# T1 sequence: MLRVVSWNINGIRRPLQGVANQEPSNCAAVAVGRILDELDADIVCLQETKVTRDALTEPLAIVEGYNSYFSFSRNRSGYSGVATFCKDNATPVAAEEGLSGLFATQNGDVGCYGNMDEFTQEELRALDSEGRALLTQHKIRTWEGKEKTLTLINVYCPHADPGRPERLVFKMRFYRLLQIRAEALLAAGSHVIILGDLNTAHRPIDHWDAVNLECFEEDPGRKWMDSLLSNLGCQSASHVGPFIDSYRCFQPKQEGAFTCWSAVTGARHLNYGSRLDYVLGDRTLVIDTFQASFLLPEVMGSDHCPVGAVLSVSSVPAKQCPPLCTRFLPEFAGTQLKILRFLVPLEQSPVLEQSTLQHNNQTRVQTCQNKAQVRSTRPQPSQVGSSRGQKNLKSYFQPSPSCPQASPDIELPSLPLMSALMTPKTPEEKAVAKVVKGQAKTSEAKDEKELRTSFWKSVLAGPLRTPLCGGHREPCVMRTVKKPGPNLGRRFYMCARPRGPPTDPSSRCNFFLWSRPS
# Experiment: affinity purification with mass spectrometry; HEI-OC1 cells transfected with PMEV-3FLAG-hAPE2; FLAG tag antibody pull-down, anti-IgG as control; SDS-PAGE bands digested in gel, LC/MS; hits at least five spectral counts and more than 2.5-fold over control
row,Substance,binding
1,Flnb (from UniProt Q80X90 1-2602),binds
2,Plec (from UniProt Q9QXS1 1-4691),binds
3,Nes (from UniProt Q6P5H2 1-1864),binds
4,Iqgap1 (from UniProt Q9JKF1 1-1657),binds
5,"MYH10 (endogenous, HEI-OC1) (from UniProt Q61879 1-1976)",binds

# Source: publication PMC12179588
